Results are given in words; binding and its absence hold for the method and conditions named. Binding seen in cells or lysates may run through a third protein. Some results given as binding are weak or reduced against the parent protein; the word gives no strength.
T1: transcription factor CP2 (TFCP2), endogenous (human (endogenous in Bel-7402 and SMMC-7721)) (UniProt Q12800)
T1 sequence: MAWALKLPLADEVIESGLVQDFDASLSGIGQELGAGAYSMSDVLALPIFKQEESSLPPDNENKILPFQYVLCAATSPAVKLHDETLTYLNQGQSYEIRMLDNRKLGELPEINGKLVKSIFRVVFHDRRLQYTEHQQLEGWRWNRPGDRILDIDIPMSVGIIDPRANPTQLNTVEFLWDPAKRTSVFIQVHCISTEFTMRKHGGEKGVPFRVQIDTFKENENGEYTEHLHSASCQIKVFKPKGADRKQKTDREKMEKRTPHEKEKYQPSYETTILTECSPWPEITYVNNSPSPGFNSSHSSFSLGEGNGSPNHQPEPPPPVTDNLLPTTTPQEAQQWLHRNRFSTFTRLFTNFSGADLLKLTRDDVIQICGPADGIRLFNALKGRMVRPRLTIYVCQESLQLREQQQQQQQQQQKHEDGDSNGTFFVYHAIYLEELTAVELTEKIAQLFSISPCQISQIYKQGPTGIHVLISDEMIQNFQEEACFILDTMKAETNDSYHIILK

The chains behind the UniProt entries cited, without tags or fusion partners.
UniProt Q15366: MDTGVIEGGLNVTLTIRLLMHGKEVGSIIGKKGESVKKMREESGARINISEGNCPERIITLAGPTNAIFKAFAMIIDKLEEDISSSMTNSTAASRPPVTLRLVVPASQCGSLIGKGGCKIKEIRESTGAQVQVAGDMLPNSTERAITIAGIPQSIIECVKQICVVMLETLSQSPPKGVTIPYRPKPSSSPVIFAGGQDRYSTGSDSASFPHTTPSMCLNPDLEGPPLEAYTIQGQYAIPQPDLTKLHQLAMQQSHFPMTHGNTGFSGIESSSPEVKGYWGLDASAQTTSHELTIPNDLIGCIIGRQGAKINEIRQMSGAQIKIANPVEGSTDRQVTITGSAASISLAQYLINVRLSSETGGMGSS
UniProt P46937: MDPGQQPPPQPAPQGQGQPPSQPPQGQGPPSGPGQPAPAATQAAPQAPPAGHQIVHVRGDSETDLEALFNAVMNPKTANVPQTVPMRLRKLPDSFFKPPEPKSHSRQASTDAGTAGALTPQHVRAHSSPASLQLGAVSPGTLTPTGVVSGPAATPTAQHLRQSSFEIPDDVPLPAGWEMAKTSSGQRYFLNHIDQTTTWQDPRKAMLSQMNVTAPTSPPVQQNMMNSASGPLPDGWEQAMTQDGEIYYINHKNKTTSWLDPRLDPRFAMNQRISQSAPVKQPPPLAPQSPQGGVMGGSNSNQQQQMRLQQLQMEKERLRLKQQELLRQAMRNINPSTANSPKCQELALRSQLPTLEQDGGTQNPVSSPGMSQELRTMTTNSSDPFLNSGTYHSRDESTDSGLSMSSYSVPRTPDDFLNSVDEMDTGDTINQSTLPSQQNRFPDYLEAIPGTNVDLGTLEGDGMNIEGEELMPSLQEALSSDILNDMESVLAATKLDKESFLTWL

B1: CCT2, endogenous (protein, UniProt P78371 1-535)
chain: MASLSLAPVNIFKAGADEERAETARLTSFIGAIAIGDLVKSTLGPKGMDKILLSSGRDASLMVTNDGATILKNIGVDNPAAKVLVDMSRVQDDEVGDGTTSVTVLAAELLREAESLIAKKIHPQTIIAGWREATKAAREALLSSAVDHGSDEVKFRQDLMNIAGTTLSSKLLTHHKDHFTKLAVEAVLRLKGSGNLEAIHIIKKLGGSLADSYLDEGFLLDKKIGVNQPKRIENAKILIANTGMDTDKIKIFGSRVRVDSTAKVAEIEHAEKEKMKEKVERILKHGINCFINRQLIYNYPEQLFGAAGVMAIEHADFAGVERLALVTGGEIASTFDHPELVKLGSCKLIEEVMIGEDKLIHFSGVALGEACTIVLRGATQQILDEAERSLHDALCVLAQTVKDSRTVYGGGCSEMLMAHAVTQLANRTPGKEAVAMESYAKALRMLPTIIADNAGYDSADLVAQLRAAHSEGNTTAGLDMREGTIGDMAILGITESFQVKRQVLLSAAEAAEVILRVDNIIKAAPRKRVPDHHPC
B2: transcription factor CP2 (TFCP2), endogenous (protein, UniProt Q12800 1-502)
chain: MAWALKLPLADEVIESGLVQDFDASLSGIGQELGAGAYSMSDVLALPIFKQEESSLPPDNENKILPFQYVLCAATSPAVKLHDETLTYLNQGQSYEIRMLDNRKLGELPEINGKLVKSIFRVVFHDRRLQYTEHQQLEGWRWNRPGDRILDIDIPMSVGIIDPRANPTQLNTVEFLWDPAKRTSVFIQVHCISTEFTMRKHGGEKGVPFRVQIDTFKENENGEYTEHLHSASCQIKVFKPKGADRKQKTDREKMEKRTPHEKEKYQPSYETTILTECSPWPEITYVNNSPSPGFNSSHSSFSLGEGNGSPNHQPEPPPPVTDNLLPTTTPQEAQQWLHRNRFSTFTRLFTNFSGADLLKLTRDDVIQICGPADGIRLFNALKGRMVRPRLTIYVCQESLQLREQQQQQQQQQQKHEDGDSNGTFFVYHAIYLEELTAVELTEKIAQLFSISPCQISQIYKQGPTGIHVLISDEMIQNFQEEACFILDTMKAETNDSYHIILK

Legend:
[1] = biological target: poly(rC) binding protein 2 (PCBP2), endogenous (human (endogenous in Bel-7402 and SMMC-7721)) (UniProt Q15366); test: co-IP; endogenous proteins, Bel-7402 lysate, protein A/G-Sepharose, Western/IP lysis buffer; some panels with CCT3 knocked down or overexpressed (cell line not named for Fig. 2f)
[2] = biological target: poly(rC) binding protein 2 (PCBP2), endogenous (human (endogenous in Bel-7402 and SMMC-7721)) (UniProt Q15366); test: co-IP; anti-PCBP2 immunoprecipitates from Bel-7402 cells expressing increasing amounts of CCT3; control cells, YAP knock-down, and re-expression of YAP-WT or YAP-d2WW; PCBP2 adjusted to the same level in the precipitates
[3] = biological target: Yes-associated protein (YAP), endogenous (human (endogenous in Bel-7402 and SMMC-7721)) (UniProt P46937); test: co-IP; endogenous proteins, Bel-7402 lysate, protein A/G-Sepharose, Western/IP lysis buffer; some panels with CCT3 knocked down or overexpressed (cell line not named for Fig. 2f)
[4] = biological target: T1, transcription factor CP2 (TFCP2), endogenous (human (endogenous in Bel-7402 and SMMC-7721)); test: as above

| Molecule | binding [1] | binding [2] | binding [3] | binding [4] |
| --- | --- | --- | --- | --- |
| Yes-associated protein (YAP), endogenous (from UniProt P46937 1-504) | binds | binds | – | – |
| B1 | – | – | binds | binds |
| B2 | – | – | binds | – |
